Source: patent US7034020B2, “Derivatives of butyric acid and uses thereof” (The University of Arkansas for Medical Science, priority 1999, dated 2006)
For at least one compound, name, drawing or mass did not settle the structure.

Key:
[1] = test system: KLH-specific Th1 cells (clone C3); assay: Cell cycle analysis (DNA content) of IL-2-stimulated Th1 cells; assay type: cell-based, C57BL/10 mice; details: n-butyrate instead of MEB added to IL-2-stimulated Th1 cells (data not shown)
Method: KLH-specific, Th1 cells (clone C3) are left unstimulated (resting), or are stimulated with IL-2 (10% Con A CM) in the presence or absence of MEB (1 mM). The Th1 cells are collected after 48 hours, and assayed for DNA content.
KLH-specific Th1 cells (clone C3) were stimulated with IL-2 (10% Con A CM) at the initiation of culture, and then again at 24, 48, and 96 hours (FIG. 8A). Some cultures also received a single dose of MEB (1 mM) at times 0, 15, 24 or 39 hours after the initiation of culture (FIGS. 8B, 8C, 8D, and 8E, respectively). The Th1 cells were collected at 0, 48, 72, 96 or 120 hours after the initiation of culture and assayed for DNA content.
If the ability of butyrate and its derivatives to induce Th1 cell tolerance is linked to their ability to block antigen-activated Th1 cells in G1, their therapeutic importance is enhanced if MEB induces G1 cell cycle blockade regardless of when in the cell cycle the compound is added. MEB is added to cultures of IL-2-stimulated Th1 at various time points. […] Finally, even if MEB is added as late as 39 hours after IL-2 stimulation, 87% of the Th1 cells (as compared to 49.9% of controls) are sequestered in G0/G1 when DNA content is measured at 72 hours.
To examine DNA content, Th1 cells were fixed in prechilled 70% ethanol overnight at 4° C. […] The data were analyzed using the ModFit DNA analysis program (Verity Software House).

[2] = intravenous infusion (Miller et al., 1987; Novogrodsky et al., 1983); cited from earlier work

For CCCC(=O)O [n-butyrate], which “Cell cycle kinetics compared with MEB” value [1] is on record?
The value was “Very similar cell cycle kinetics”.

What about the “Clinical efficacy as an anti-cancer agent” value [2] of the same compound?
Its value is “clinically ineffective”.
